# No constants are given. Whether binding was seen depends on the method and setting. In cells and extracts the contact can be indirect. Some results given as binding are weak or reduced against the parent protein; the word gives no strength.
# By UniProt entry, the sequences of proteins in these tests, tags left out. Residues count along the entry.
# UniProt O14543: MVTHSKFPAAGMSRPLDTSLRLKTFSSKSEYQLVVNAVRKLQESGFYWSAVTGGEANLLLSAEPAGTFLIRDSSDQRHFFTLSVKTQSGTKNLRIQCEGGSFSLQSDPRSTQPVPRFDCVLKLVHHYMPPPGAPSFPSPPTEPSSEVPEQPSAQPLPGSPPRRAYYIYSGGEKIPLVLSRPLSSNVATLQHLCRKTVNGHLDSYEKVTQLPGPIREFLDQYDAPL
# UniProt O00220, residues 24-468: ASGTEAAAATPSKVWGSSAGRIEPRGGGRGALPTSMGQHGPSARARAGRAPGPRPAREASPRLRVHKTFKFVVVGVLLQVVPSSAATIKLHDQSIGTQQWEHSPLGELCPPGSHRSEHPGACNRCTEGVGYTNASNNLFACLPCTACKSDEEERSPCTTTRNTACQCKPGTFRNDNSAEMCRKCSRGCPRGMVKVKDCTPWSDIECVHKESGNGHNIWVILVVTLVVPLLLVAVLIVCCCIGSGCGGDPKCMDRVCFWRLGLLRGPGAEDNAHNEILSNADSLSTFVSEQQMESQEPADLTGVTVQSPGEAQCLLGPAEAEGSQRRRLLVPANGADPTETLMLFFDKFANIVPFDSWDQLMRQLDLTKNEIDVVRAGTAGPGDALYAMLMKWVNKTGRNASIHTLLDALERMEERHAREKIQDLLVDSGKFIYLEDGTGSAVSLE
# Target: suppressor of cytokine signaling 3 (SOCS3) (human (endogenous in ACHN and 786-O)) (UniProt O14543)
# Assay: co-IP; ACHN and 786-O cells treated with 1000 IU/mL IFN-α for different time periods, lysed; immunoprecipitation with anti-SOCS3 antibody on Protein G magnetic beads; Western blot with anti-SOCS3 and anti-DR4 antibodies
substance,measurement,value
TRAIL-R1/DR4 (from UniProt O00220 24-468) (receptor),binding,binds

# Reference: paper PMC6114968
